Test results: patent US20160032005A1, “METHODS AND PHARMACEUTICALS COMPOSITIONS FOR TREATING BREAST CANCERS” (INSERM (Institut National de la Sante et de la Recherche …, priority 2014, published 2016)
At least one compound was matched to its structure with a doubt left.

Legend:
p62 = p62 immunolocalization and protein level under autophagy modulators; format: cell-based; conditions: breast cancer and Hela cells
Excerpt: (§1) We next addressed the potential colocalization of Vangl2 and p62 in SUM149 cells by immunofluorescence and confocal analysis. In these cells, Vangl2 and p62 have a punctate cytoplasmic pattern and colocalization between the two proteins was seen puncta in the perinuclear region. Specificity of the Vangl2 signal is attested by lack of staining in cells treated with shVangl2. p62 is present in autophagosomes where it accumulates ubiquitinylated proteins bound to its UBA domain for autophagic degradation. Autophagy is active when the fusion between autophagosomes and lysosomes occur leading to the formation of autophagolysosomes endowed with degradative properties. The fusion process, and therefore autophagy, can be inhibited by Bafilomycin A1, an inhibitor of the vacuolar ATPase that blocks the fusion process by blocking the membrane-bound lysosomal vacuolar ATPase (V-ATPase) to prevent the lysosomal lumen acidification responsible for cathepsin activation. Alternatively, autophagy can be induced by rapamycin, an inhibitor of mTOR [38]. […] Decrease of p62 protein level can also be monitored by western blot. Vangl2 protein levels remained unmodified by rapamycin treatment while another prominent feature of autophagy, i.e. degradation of p62 was readily seen. […]

Vangl2 = Vangl2 protein level (western blot) and cellular distribution under autophagy modulators; format: cell-based
Excerpt: as §1

Q: Which p62 immunolocalization (p62) does the source give for CO[C@H]1C[C@@H]2CC[C@@H](C)[C@@](O)(O2)C(=O)C(=O)N2CCCC[C@H]2C(=O)O[C@H]([C@H](C)C[C@@H]2CC[C@@H](O)[C@H](OC)C2)CC(=O)[C@H](C)/C=C(\C)[C@@H](O)[C@@H](OC)C(=O)[C@H](C)C[C@H](C)/C=C/C=C/C=C/1C [rapamycin] here?
A: strong decrease

Q: And the “cellular distribution of Vangl2” value (Vangl2; treated compared to untreated cells, also SUM149 cells)?
A: redistribution of Vangl2 in smaller intracellular structures

Q: What about the Vangl2 protein levels (Vangl2; western blot) of the same compound?
A: unmodified
